# Results taken from PubChem BioAssay AID588497 (NMMLSC, 2011).
# Screen size: about 360,000 compounds; about 780 (0.22%) were called active. This list was built around the results that the source calls inconclusive (neither active nor inactive); the mix of calls is not that of the screen. No stated cut-off is given here; in the data, active means inhibition above about 35% (passing the limit was not always enough); inconclusive means no clear call, values can overlap the other calls.
# System: Botulinum neurotoxin type F light chain protease (Clostridium botulinum)
# Assay: BoNT/F light chain protease inhibitors, primary screen, biochemical, flow cytometry, MLPCN library (AID 588497); further: plate controls were buffer without enzyme for full effect and enzyme alone for no effect
# Conditions: Multiplex microsphere protease cleavage assay, at 10 µM, stronger effect = higher value
row,Structure (SMILES),inhibition
1,Cc1c(C(=O)N/N=C/c2ccncc2)nnn1-c1nonc1N,inactive: 7.9%
2,O=C(N/N=C/c1ccc(Br)s1)c1ccco1,inconclusive: -7%
3,Cc1ccc(C(=O)C2CCN(C(=S)NCCCOC(C)C)CC2)cc1,inconclusive: -7.1%
4,COc1ccc(NC(=O)c2cc(C(=O)Nc3ccc(OC)cc3OC)cc([N+](=O)[O-])c2)c(OC)c1,inconclusive: -4.6%
5,O=C(c1ccc(Cl)c(S(=O)(=O)N2CCOCC2)c1)N1CCN(Cc2ccccc2)CC1,inconclusive: 40.8%
6,O=C1CC(c2ccsc2)Sc2ccccc2N1 (stereo unspecified),inconclusive: -74.9%
7,CCCCOC(=O)Nc1ccc(N2CCOCC2)cc1,inactive: -4.9%
8,CN(C)/C=N/NC(=O)c1ccccc1Cl,inconclusive: -24%
9,CC(C)CCNC(=O)c1ccc2c(c1)N(C)C(=O)c1ccccc1S2,inconclusive: 56.8%
10,Cc1ccc2[nH]c(=O)c(C(c3nnnn3Cc3ccccc3)N3CCc4ccccc43)cc2c1 (stereo unspecified),inactive: -0.9%
11,CCOC(=O)C1CCN(C(=O)c2cccnc2Cl)CC1,inactive: -0.9%
12,COc1ccc(CCNC(=O)/C=C/c2ccco2)cc1,inconclusive: 1.2%
13,CN(c1ccccc1)S(=O)(=O)c1ccc(NC(=O)C2CCCCC2C(=O)O)cc1 (stereo unspecified),inactive: -2.5%
14,O=C(COc1coc(CN2CCN(c3ccccc3)CC2)cc1=O)Nc1ccccc1,inconclusive: 11.9%
15,O=C(O)CNc1nc(Cl)ccc1[N+](=O)[O-],inconclusive: -5.6%
16,CCN(CC)S(=O)(=O)c1ccc(OCC(=O)NC(=O)Cc2ccccc2)c([N+](=O)[O-])c1,inactive: -4.8%
17,COC(=O)c1ccc(COC(=O)C2CCN(S(=O)(=O)c3ccccc3C(=O)OC)CC2)cc1,inconclusive: -5.4%
18,COc1ccc(N2C(=O)CCC2=O)cc1,inactive: 4.6%
19,CCC(=NCCCN1CCOCC1)c1c(O)n(-c2ccccc2C)c(=O)[nH]c1=O,inconclusive: -16.9%
20,CC(C)(C)C(CN1CCCC1)OC(=O)c1ccccc1 (stereo unspecified),inconclusive: -17.1%
21,O=C1C(=O)N(c2cccc(Cl)c2)C(c2ccccc2[N+](=O)[O-])/C1=C(\O)c1ccccc1 (stereo unspecified),inactive: -0.2%
22,C=CCn1cc(C=C2C(=O)NC(=O)NC2=O)c2ccccc21,inactive: 17.8%
23,O=C(CCCCC(=O)NCCCc1ccccc1)NCCCc1ccccc1,inconclusive: -10.2%
24,O=S(=O)(NCc1ccccc1Cl)c1cnc[nH]1,inconclusive: 6.2%

row,Structure (SMILES),inhibition
1,CC(C)Oc1ccc(-c2nc(NCC3CCCO3)c3ccccc3n2)cc1 (stereo unspecified),inconclusive: 23.8%
2,CCCC(C)(C)C(=O)N1CCC1(C)C(=O)NS(=O)(=O)c1ccc(Br)cc1 (stereo unspecified),inactive: -1.8%
3,O=C(NCc1ccc(F)cc1)c1ccc(N2CCc3ccccc32)c([N+](=O)[O-])c1,inactive: 2.7%
4,CC(=O)N/C(N)=N/c1nc2cc([N+](=O)[O-])ccc2o1,inconclusive: 60.4%
5,CCOc1ccc(C(=O)NC(=S)Nc2ccc(N3CCC(C)CC3)cc2)cc1[N+](=O)[O-],active: 39.4%
6,O=C1CN(c2ccc(F)cc2)C(=S)N1c1ccccc1,inconclusive: -8.9%
7,Cn1ncc2c(Nc3ccccc3Cl)nc(Nc3ccccc3Cl)nc21,inconclusive: 2.2%
8,COc1ccccc1N1C(=S)N=C(Nc2c(C)cccc2C)C12CCCC2,inconclusive: 179%
9,CCc1ccc2[nH]c(=O)c(-c3ccccc3)c(O)c2c1,inconclusive: -7.9%
10,COc1cccc(N=C(N)N=C(N)N)c1,inconclusive: 39.5%
11,CN(C)c1ccc2c(c1)Sc1cc(N(C)C)ccc1N2C(=O)c1ccccc1,inconclusive: 1.8%
12,CSc1ncc(Cl)c(C(=O)NCc2cccnc2)n1,inactive: -2.3%
13,O=C(NCCN1CCOCC1)C1CCC(=O)N1Cc1ccccc1Cl (stereo unspecified),inactive: 8.4%
14,O=C(O)c1ccc2c(=O)n3c(nc2c1)/C(=C/c1cccc(Cl)c1Cl)CC3,inconclusive: -4.9%
15,COCCn1nnnc1C(CC(C)C)N1CCN(C(=O)c2ccco2)CC1 (stereo unspecified),inconclusive: -23.2%
16,O=C(Oc1ccc2c(c1)C(=O)c1ccccc1CO2)c1ccccc1,inconclusive: -10%
17,CCC(C)NC(=O)c1c(N)n(CCCOC)c2nc3ccccc3nc12 (stereo unspecified),inactive: 6.5%
18,O=S1CCCSC1c1cccnc1 (stereo unspecified),inactive: -1.1%
19,CCOC(=O)CNc1nc(C(C)(C)C)nc2c1nnn2Cc1ccccc1Cl,inactive: -2.2%
20,O=C(N/N=C\c1ccc(O)c([N+](=O)[O-])c1)C1COc2ccccc2O1 (stereo unspecified),inactive: -11.6%
21,CCc1cc2c(s1)NC(=O)CN=C2c1cccs1,inconclusive: -17%
22,CC(C)CC(=O)c1c[nH]c(C(=O)NCc2ccc(F)cc2)c1,inactive: 2.9%
23,Cn1ccnc1SC(C(=O)O)c1ccccc1 (stereo unspecified),inconclusive: -33.7%
24,O=C1N(c2nncs2)CCN1[N+](=O)[O-],inconclusive: -16.8%

row,Structure (SMILES),inhibition
1,S=C(Nc1ccc(Cl)cc1)c1sc(N2CCCCC2)nc1N1CCOCC1,inactive: 26.9%
2,COc1ccc(Cl)cc1N=Cc1c(O)c2ccccc2oc1=O,inconclusive: 19.1%
3,Cc1cc(Cl)ccc1N1C(=O)CC(SCCC(=O)O)C1=O (stereo unspecified),inconclusive: -34.2%
4,COc1ccc(-c2nn(C)c(=O)c3ccccc23)cc1CNC(=O)c1ccco1,inactive: -29.5%
5,O=C(NN=C1CCCC1)c1ccccc1O,inconclusive: -3%
6,C=CCn1c(O)c(/C(C)=N/N2CCCCC2)c(=O)[nH]c1=O,inconclusive: 82.4%
7,O=C(Nc1nncs1)C12CC3CC(CC(Cl)(C3)C1)C2,inconclusive: -1.2%
8,C=CCn1c(SC)nnc1-c1ccc2ncccc2c1,inconclusive: 4.3%
9,COc1cc(-c2n[nH]c(=S)n2C(C)c2ccccc2)cc(OC)c1OC (stereo unspecified),inconclusive: 25.8%
10,Cc1ccccc1-n1c(=O)n(CCc2ccccc2)c(=O)c2[nH]cnc21,inconclusive: 49.8%
11,CNS(=O)(=O)c1ccc2c3c(cccc13)C(=O)N2C,inconclusive: -32.1%
12,Oc1c(N=Nc2ccccn2)ccc2ccccc12,inactive: -16.7%
13,COc1ccc(C(CNC(=O)c2ccc(NS(=O)(=O)c3ccc(F)c(C)c3)cc2)N(C)C)cc1 (stereo unspecified),inconclusive: -4.3%
14,CC(C)Cc1nc2oc3c(Cl)ncnc3c2c2c1CCCC2,inconclusive: 35.9%
15,O=c1c(=O)n(CCO)n(CCO)c(=O)n1CCO,inactive: -0.9%
16,CSc1nnc(-c2ccco2)n1-c1ccccc1,inconclusive: -24.3%
17,Cc1ccc2oc(=O)c(/C=C(\O)c3ccco3)nc2c1,inconclusive: 35.1%
18,Cc1ccc(C)c(S(=O)(=O)NC2CCS(=O)(=O)C2)c1 (stereo unspecified),inconclusive: -8.8%
19,Clc1ncccc1OCc1ccccc1,inconclusive: 26.4%
20,CCOC(=O)c1nc(C)n(-c2ccc(Cl)cc2)n1,inactive: 1.1%
21,Cc1cccc(NC(=O)COc2coc(CN3CCc4ccccc4C3)cc2=O)c1,inconclusive: 22.4%
22,COc1cccc(NC(=O)CN(C)C(=O)c2c(-c3ccccc3)noc2C)c1,inactive: -3.6%
23,O=C(CCl)Nc1cccc(S(=O)(=O)NC2=NCCC2)c1,inactive: 1.6%
24,C[C@]12c3[nH]c4ccccc4c3CCN1C(=O)C(CC(=O)NCCC1=CCCCC1)C[C@@H]2C(=O)N1CCCCC1 (stereo partly specified),inactive: -5.8%

row,Structure (SMILES),inhibition
1,O=c1ccc(-c2ccc(S(=O)(=O)Nc3cccc(Br)c3)o2)n[nH]1,inactive: -5.3%
2,COc1ccc(CNC(=S)Nc2ccccc2)cc1,inconclusive: 44.1%
3,ClC1CCCCC1n1nnc2ccccc21 (stereo unspecified),inconclusive: 65.8%
4,Cc1ccc(NC(=O)C2CCN(c3ncnc4c3nc3n4CCCCC3)CC2)nc1,inactive: -0.6%
5,COc1ccc(/C=C(/C#N)C(=O)NC2CCCCC2)cc1Br,active: 35.8%
6,CCCCCCCCS(=O)C1CS(=O)(=O)CC1O (stereo unspecified),inconclusive: 49.1%
7,COc1ccc(-c2csc(Nc3cccc(C)n3)n2)cc1C,inconclusive: -10.3%
8,COc1ccc(N2C(=O)C3CCCN3C2c2ccccc2)cc1Cl (stereo unspecified),active: 53.3%
9,CCc1ccc2cccc3c2c1N=CN3C,inconclusive: 13.9%
10,N#CC1(c2ccccc2)CCC(=O)N1Cc1ccccc1 (stereo unspecified),inconclusive: 7.4%
11,COc1ccc2oc(C(=O)OC(C)C(=O)N(C)c3ccccc3)c(C)c2c1 (stereo unspecified),inconclusive: 5%
12,COc1cccc(C(=O)N2CCN(C3CCCCC3)CC2)c1,inconclusive: -24.1%
13,CSc1ccccc1NC(=O)c1c(Br)cnn1C,inactive: 2.1%
14,C(=C\c1ccccc1)/CSc1nnc(-c2ccccc2)n1Cc1ccco1,inactive: 0.6%
15,CCCc1ccc(C(=O)NNc2cc(Cl)ccc2Cl)cc1,inconclusive: -61.8%
16,CC(=O)Oc1oc(-c2ccccc2)nc1C=Nc1ccc(N(C)C)cc1,inconclusive: 26.3%
17,Cc1cc(C)cc(-n2nnnc2-c2cn(C)nc2C(F)(F)F)c1,inactive: -4.8%
18,O=C(N/N=C/C(Cl)=C/c1ccccc1)c1cnccn1,inactive: 1.6%
19,CCSc1ccc(C(=O)NCC(=O)O)cc1,inconclusive: -7.5%
20,O=C(COc1ccc(Br)cc1)N1CCc2ccccc21,inconclusive: -177%
21,CCOC(=O)c1sc(NC(=O)c2ccc(S(=O)(=O)N3CCOCC3)cc2)cc1C,inactive: -3.4%
22,CCC12OC(=N)C(C#N)(C1C)C(C#N)(C#N)C(c1ccccc1)O2 (stereo unspecified),inactive: -1.3%
23,COc1cc(NC(=O)c2ccccc2)c(OC)cc1NC(=O)Cc1ccc(C)cc1,inactive: 27.1%
24,C=CCNC(=O)C1CC(=O)N(c2ccc(OCC(=O)Nc3ccc(Cl)cc3)cc2)C1 (stereo unspecified),inconclusive: -2.9%

# Four entries drawn at random from those above, as already listed:
row,Structure (SMILES),inhibition
15,CCCc1ccc(C(=O)NNc2cc(Cl)ccc2Cl)cc1,inconclusive: -61.8%
5,COc1ccc(/C=C(/C#N)C(=O)NC2CCCCC2)cc1Br,active: 35.8%
3,ClC1CCCCC1n1nnc2ccccc21 (stereo unspecified),inconclusive: 65.8%
4,Cc1ccc(NC(=O)C2CCN(c3ncnc4c3nc3n4CCCCC3)CC2)nc1,inactive: -0.6%
